Reference: the supplement of paper PMC3334620
The full ranking holds about 33,000 sequences; the median of “E-score (-0.5 to 0.5)” is about -8e-05, and the highest 2% start at about 0.23. The list shows a part of the results.

molecular target: T1, Nrg2 (UniProt P38082); assay: PBM E-score (8-mer binding enrichment) (E-score (-0.5 to 0.5)); higher = stronger / more preferred TF binding; conditions: protein concentration: 100 nM; construct: GST-full length
T1 sequence: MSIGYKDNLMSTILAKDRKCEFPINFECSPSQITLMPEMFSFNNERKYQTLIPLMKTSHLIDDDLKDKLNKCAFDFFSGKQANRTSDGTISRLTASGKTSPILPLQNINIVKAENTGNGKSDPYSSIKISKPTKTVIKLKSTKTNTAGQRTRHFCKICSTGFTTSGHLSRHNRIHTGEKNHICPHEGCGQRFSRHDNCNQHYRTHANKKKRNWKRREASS
Method in brief: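 E-scores (a modified Wilcoxon-Mann-Whitney statistic) were assigned by the Universal PBM Analysis Suite to every ungapped eight-base word pooled with its reverse complement. The input came from universal all-10-mer Agilent arrays made double-stranded by primer extension and probed with GST-tagged yeast transcription factors at about 100-200 nM. Fluorescent anti-GST detected bound protein, and masliner normalised the scans.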

Sequence | PBM E-score
ATTCCTCC | -0.0463
AAGTGATT | 0.0989
CTGTTCGA | -0.101
GGGTGAAC | -0.055
CTAACGAA | -0.0418
ATAGACCG | -0.127
GACTTTTA | -0.0998
CTGTTGCC | -0.123
CTTCGCTC | -0.0505
CAGCTGGG | -0.055
GGTTAATA | -0.0119
GAAATCCA | 0.142
CTGCCGTC | -0.0881
AGACTACC | 0.0115
GCATAGCC | -0.19
ATCAAACC | 0.123
CGTGGATA | 0.0394
AACGAGTA | 0.0734
AGCACACT | 0.00567
ACGTTCAG | -0.211
GCGGTACA | -0.00728
ATCCAGTC | -0.0107
AAGCGGTC | -0.0575
CAATTGTA | 0.0262
ATCAGATC | 0.0378

Rewritten as comma-separated lines: entries from further up.
Sequence,PBM E-score
CTGTTGCC,-0.123
CTTCGCTC,-0.0505
CAGCTGGG,-0.055
GGTTAATA,-0.0119

Additional entries

Sequence | PBM E-score
ACAACCCC | 0.134
GATGGTAC | -0.0007
CCAACGGA | -0.031
ACCATCGG | -0.0936
AGCGCACT | -0.0126
ATACAGGA | -0.00019
GCTACTCA | 0.0406
AACGATCT | -0.013
ACCGCGTA | 0.00539
CTCAACTC | 0.117
AGAAACTC | -0.0479
CCGGTCAC | -0.16
AGGGACCA | 0.35
ACTGTTAG | 0.00286
AGTCTACC | -0.0666
GCTCCGCC | -0.0308
GCACGAGC | -0.115
ACGTTCGG | -0.268
AGAAACAT | 0.0682
GCATAGAC | -0.179
GACACCCC | -0.215
AGGACAGC | -0.0372
CACTAACC | 0.0362
ACAAGTGA | 0.0394
CGAAGTGA | 0.079

Sequence | PBM E-score
AAGACGAT | -0.0742
ATGAGCAA | 0.121
GCGTACTA | 0.0164
AGCGCGCC | 0.0741
AAAGGTAC | 0.00989
AATCGATG | 0.0168
CATGTCAC | 0.0174
ATACTGAG | 0.255
TCCCCCGA | -0.243
CCAAAATA | 0.0548
ATGCGAAG | -0.00307
ATCCGAGG | -0.00352
AGGTTGCA | 0.164
CCAGGAGG | -0.0731
CAGGCCAG | -0.0376
AAATCGAA | 0.111
CAGACAAG | 0.0707
GATGGTTA | -0.112
ATTAGAAG | 0.117
CAACAGAA | -0.113
CTAAATGC | -0.128
GGGGGAAA | -0.197
AAAGGGAA | -0.0827
CAGTATAC | 0.153
AACGAATG | 0.216

Sequence | PBM E-score
CGGGGTTC | 0.0227
CAAATACG | -0.0443
ATTCAGCA | 0.0155
CTTTTCAA | -0.0189
GGAGCCCC | -0.284
CAAAGAGC | -0.181
GAAAATAC | -0.00515
TGCCCCAA | 0.119
CGTAGACA | -0.125
GAGGTTAC | -0.123
CCTTGTGC | -0.202
CGCCGAGC | 0.0626
CCGTAAAG | 0.0383
AAATCATG | 0.0935
CTGGTGGA | -0.265
GGCGCCCA | 0.173
CGGTGGAC | 0.0182
CCTCCTCC | -0.283
GATGTGAC | -0.141
GATCGATC | 0.108
CACTCGAG | 0.00134
GACATGGA | 0.045
CCTGGAGA | 0.0343
CCCTGGGA | 0.0906
CAACTACA | 0.0605

Taken from the entries so far (5 entries):
Sequence | PBM E-score
CAGACAAG | 0.0707
GATGGTTA | -0.112
ATTAGAAG | 0.117
CAACAGAA | -0.113
CTAAATGC | -0.128

The listing continues:

Sequence | PBM E-score
ATGTACCA | -0.224
GCCAGCCA | -0.014
AGCAGCCA | 0.0226
TAATGTAA | 0.0569
AGAAACCC | -0.0102
CCCTGAAG | 0.208
GACTTGAA | -0.0965
ACCCGCGG | 0.275
CTCTCCTC | -0.285
CGTTCTAC | -0.147
AGAAAGCC | -0.0236
AAAGGGAT | 0.0813
AGCCTCGA | -0.0885
GCTTACAA | -0.124
AGTCACCG | -0.116
TACCCGCA | 0.167
CAATGGAG | -0.17
CAAGAAAA | 0.0468
CTCGGGCA | 0.0229
ATGACTCC | -0.0893
CGAGCCGA | -0.0924
AGACCATA | 0.0148
CTTAGTGA | 0.0599
GGTACCCA | -0.213
AAGGGCCG | -0.0822

Sequence | PBM E-score
AACATGCC | -0.131
ATTACCAA | 0.0553
CCGCTACA | -0.0582
GCAAGTCC | -0.0298
CCGTCGCC | -0.0104
ACGGACTA | -0.0283
GGTGAATA | 0.104
AAACAGAC | 0.176
ATCTGATC | 0.14
CGCTTAAG | -0.0535
TAACCGAA | -0.0477
AACGTTCA | -0.276
GGTAGGAA | -0.0697
ATCAAAAT | -0.0176
CATGCGTA | 0.0188
AGGGCATC | -0.0906
AATACTAA | 0.141
TGCACGCA | -0.0547
CCAAGAAA | 0.0483
CATCCAGG | 0.155
GGAACCAC | -0.0415
AAGCCGGC | 0.0653
AGCGTATA | 0.0997
CACTATAA | -0.139
ATATACTC | 0.0973

Sequence | PBM E-score
AGCAATTG | 0.176
ACGCAGCT | 0.0108
GCGGTCTA | 0.182
CCAAGGTC | -0.114
CGTGGTAG | -0.094
AAATCCGA | -0.0184
GTGACCTA | -0.0873
CGCTGATC | 0.0411
CCCCATAC | 0.101
CCTTGTAC | -0.132
AGTTTTGG | 0.154
AGCTCAGG | 0.139
CACCTCCA | -0.219
CACGTGCG | -0.0842
TAACAACA | 0.103
ATTAGCCG | -0.0599
CTTGTTGC | 0.0274
ACCATAGC | -0.0536
AAAAATTC | 0.162
ACACGTTA | -0.135
AAAAGCAC | -0.181
CATGGGTA | -0.074
ATAATCAG | 0.0745
CGTATGAC | -0.213
GTCTGGTA | -0.00183

Sequence | PBM E-score
GAGGACCC | 0.174
TCTACCCA | -0.0386
GGCTCGAA | 0.0374
GATGAAGC | -0.0335
AAGCCTGC | -0.0818
CCGCTGTC | -0.00919
CACGTAAG | -0.171
AAATACTA | 0.00839
AAATTTGC | 0.076
CCAGCAAA | 0.132
TATACCGA | 0.0393
ATTGACAA | -0.0343
CAATAGGG | 0.149
ATAGCTGG | 0.015
AGGGGCGG | 0.164
ACCTAGCG | -0.0328
ACATTGTC | 0.187
AAACCCAC | 0.218
CGAGTCCC | -0.0143
GTTTAAGA | -0.156
ACAATTGA | 0.113
ACGCAGAA | 0.125
ACCGCAGC | -0.0437
AGTTTGAA | 0.23
CTCTCAGC | -0.152

Sequence | PBM E-score
CCCGCTCG | -0.0307
CCACGGGC | -0.139
AGATTAAC | -0.0245
ATACCAGG | -0.0211
CAATGATC | -0.124
ATTGGACA | 0.163
ATAGTACG | 0.134
CATCGATG | 0.0612
AAGCCAAG | 0.00278
CTGCGACA | 0.104
GGGCTACC | -0.183
CACACGGA | -0.0956
CACTAATA | 0.133
AGACACCT | -0.0721
AGCATGCA | 0.00231
AGCTCTAA | 0.0849
CTCAAGAG | -0.217
CCTTACCG | -0.0752
ATATTGTA | 0.0677

Part of the list above, with each value named:
CCGCTGTC
  PBM E-score: -0.00919
CACGTAAG
  PBM E-score: -0.171
AAATACTA
  PBM E-score: 0.00839
AAATTTGC
  PBM E-score: 0.076
